From PubChem BioAssay AID743479 (Broad Institute, 2014)
Inconclusive results, whose numbers are uncertain, are shown with a selection of clear calls. Activity calls are given as the source filed them.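 Rule for the calls: active = fitted curve crosses 35% inhibition of luciferase signal below 10 µM, corrected for cell viability; inconclusive = no clear call, values can overlap the other calls; inactive = activity opposite to the expected decrease, otherwise the rest.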

assay: inhibitors of EWS/FLI-driven NR0B1 reporter expression, dose response, luciferase luminescence, A673 cells, dry powder (AID 743479); details: viability-normalised luminescence; at 68 µM (top of the series) unless noted

| SMILES | activity change, negative = inhibition |
| --- | --- |
| C=C([C@@H](O)[C@@H](C)O)[C@@H](OC)[C@]1(C)Cc2cc3cc(O[C@H]4CC(OC5CC(O)C(O)C(C)O5)C(O)C(C)O4)cc(O)c3c(O)c2C(=O)[C@H]1OC1CC(OC2CC(OC3CC(C)(O)C(O)C(C)O3)C(O)C(C)O2)C(O)C(C)O1 (stereo partly specified) | inactive: 12.4% [at 6.8 µM] |
| Clc1ccc(-c2cnc3ccc(-c4ccccc4)cn23)cc1 | inactive: 38.6% [at 16 µM] |
| O=C(Cc1ccc(-c2ccc(OCCN3CCOCC3)cc2)cn1)NCc1ccccc1 | inconclusive: -56.8% [at 35 µM] |
| Cc1c([C@H](C(Cl)Cl)[C@H](O)[C@H]2C[C@H](C)C(=O)O2)ccc2c1C(=O)[C@H]1[C@H]2C[C@@H](Br)[C@@]23O[C@@H](CO[C@H]2O)C[C@]13C | inconclusive: -68.7% |
| COc1cc(Nc2ncc3c(n2)-c2ccc(Cl)cc2C(c2c(F)cccc2OC)=NC3)ccc1C(=O)O | inactive: 114% |
| CC[C@]1(O)CC2CN(CCc3c([nH]c4ccccc34)[C@@](C(=O)OC)(c3cc4c(cc3OC)N(C=O)[C@H]3[C@@](O)(C(=O)OC)[C@H](OC(C)=O)[C@]5(CC)C=CCN6CC[C@]43[C@@H]65)C2)C1 (stereo partly specified) | inconclusive: -46.3% [at 2.1 µM] |
